Data reported in patent US20030161827A1, “Therapies that improve graft survival” (priority 2000, published 2003).
At least one compound was matched to its structure with a doubt left.

Tested on: renal allograft
Test: Unilateral renal transplantation, mAb and sirolimus (Example 2)
Format: in vivo, monkey
Conditions: within the first week post transplant

In the case of CO[C@H]1C[C@@H]2CC[C@@H](C)[C@@](O)(O2)C(=O)C(=O)N2CCCC[C@H]2C(=O)O[C@H]([C@H](C)C[C@@H]2CC[C@@H](O)[C@H](OC)C2)CC(=O)[C@H](C)/C=C(\C)[C@@H](O)[C@@H](OC)C(=O)[C@H](C)C[C@H](C)/C=C/C=C/C=C/1C [sirolimus], the “animals with early clinical acute rejection” value is reported as “all animals”.
